Results from the supplement of paper PMC12819154, “High-throughput peptide-centric local stability assay extends protein–ligand identification to membrane proteins, tissues and bacteria” (Nature Structural & Molecular Biology, 2025).
The list shows a part of the results. Small differences around the control level are noise.

Sequences of proteins named here, by UniProt entry; tags and fusion partners are left off. A change or cut given only in a name is not applied to a line headed by its entry.
UniProt Q99598: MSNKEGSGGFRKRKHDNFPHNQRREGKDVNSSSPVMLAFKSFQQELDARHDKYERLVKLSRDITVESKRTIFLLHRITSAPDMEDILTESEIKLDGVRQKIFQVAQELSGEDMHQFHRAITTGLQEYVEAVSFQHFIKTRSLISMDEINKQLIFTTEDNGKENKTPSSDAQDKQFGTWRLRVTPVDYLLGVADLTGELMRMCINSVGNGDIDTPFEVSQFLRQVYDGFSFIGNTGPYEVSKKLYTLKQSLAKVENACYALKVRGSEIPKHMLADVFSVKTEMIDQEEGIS
UniProt Q9BQS8: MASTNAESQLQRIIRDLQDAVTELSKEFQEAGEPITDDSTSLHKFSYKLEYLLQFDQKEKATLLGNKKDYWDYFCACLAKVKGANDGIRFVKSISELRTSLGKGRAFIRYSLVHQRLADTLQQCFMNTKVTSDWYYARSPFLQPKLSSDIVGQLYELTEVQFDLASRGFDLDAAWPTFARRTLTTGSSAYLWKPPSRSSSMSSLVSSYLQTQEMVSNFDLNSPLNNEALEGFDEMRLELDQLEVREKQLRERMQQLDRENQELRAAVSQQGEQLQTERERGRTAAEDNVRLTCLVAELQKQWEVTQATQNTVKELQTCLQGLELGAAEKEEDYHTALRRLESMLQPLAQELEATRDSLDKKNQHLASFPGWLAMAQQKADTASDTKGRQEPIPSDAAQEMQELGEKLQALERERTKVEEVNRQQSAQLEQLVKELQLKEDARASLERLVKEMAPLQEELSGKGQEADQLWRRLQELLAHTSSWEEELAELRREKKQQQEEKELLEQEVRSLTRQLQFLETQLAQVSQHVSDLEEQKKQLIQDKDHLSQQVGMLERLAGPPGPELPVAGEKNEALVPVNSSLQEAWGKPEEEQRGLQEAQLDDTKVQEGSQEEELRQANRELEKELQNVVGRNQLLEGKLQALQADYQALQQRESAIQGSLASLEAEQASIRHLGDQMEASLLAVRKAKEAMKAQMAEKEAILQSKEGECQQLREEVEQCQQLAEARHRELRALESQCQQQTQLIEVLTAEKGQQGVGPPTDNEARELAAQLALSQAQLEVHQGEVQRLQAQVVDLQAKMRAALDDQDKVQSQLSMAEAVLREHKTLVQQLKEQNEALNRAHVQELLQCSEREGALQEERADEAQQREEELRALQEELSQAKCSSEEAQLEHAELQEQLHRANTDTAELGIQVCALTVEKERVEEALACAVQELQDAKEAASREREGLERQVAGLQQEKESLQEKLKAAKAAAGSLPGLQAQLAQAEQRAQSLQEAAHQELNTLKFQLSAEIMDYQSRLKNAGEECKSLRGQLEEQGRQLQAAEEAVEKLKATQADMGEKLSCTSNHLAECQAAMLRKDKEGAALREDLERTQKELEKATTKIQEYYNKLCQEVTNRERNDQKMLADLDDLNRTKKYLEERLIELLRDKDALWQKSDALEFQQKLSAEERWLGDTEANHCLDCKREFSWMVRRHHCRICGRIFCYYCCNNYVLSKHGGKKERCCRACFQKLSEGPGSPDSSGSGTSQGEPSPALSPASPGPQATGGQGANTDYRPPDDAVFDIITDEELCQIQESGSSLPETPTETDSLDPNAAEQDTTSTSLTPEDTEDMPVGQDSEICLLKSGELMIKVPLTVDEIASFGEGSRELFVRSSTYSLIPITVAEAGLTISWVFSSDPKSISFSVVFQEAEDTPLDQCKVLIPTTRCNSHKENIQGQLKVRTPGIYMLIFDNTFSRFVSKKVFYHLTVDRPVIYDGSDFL
UniProt Q9BUV8: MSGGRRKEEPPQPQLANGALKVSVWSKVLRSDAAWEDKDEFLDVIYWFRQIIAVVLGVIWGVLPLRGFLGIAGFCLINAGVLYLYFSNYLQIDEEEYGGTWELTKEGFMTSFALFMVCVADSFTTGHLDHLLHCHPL
UniProt Q9BPW8: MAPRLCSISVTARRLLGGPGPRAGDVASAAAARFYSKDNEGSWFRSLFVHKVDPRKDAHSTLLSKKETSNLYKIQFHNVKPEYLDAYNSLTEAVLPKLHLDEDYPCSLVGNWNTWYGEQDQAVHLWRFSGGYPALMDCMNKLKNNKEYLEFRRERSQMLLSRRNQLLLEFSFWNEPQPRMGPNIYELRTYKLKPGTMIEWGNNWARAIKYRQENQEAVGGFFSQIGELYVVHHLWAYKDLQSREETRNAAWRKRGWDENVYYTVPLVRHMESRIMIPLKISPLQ
UniProt Q9BRK4: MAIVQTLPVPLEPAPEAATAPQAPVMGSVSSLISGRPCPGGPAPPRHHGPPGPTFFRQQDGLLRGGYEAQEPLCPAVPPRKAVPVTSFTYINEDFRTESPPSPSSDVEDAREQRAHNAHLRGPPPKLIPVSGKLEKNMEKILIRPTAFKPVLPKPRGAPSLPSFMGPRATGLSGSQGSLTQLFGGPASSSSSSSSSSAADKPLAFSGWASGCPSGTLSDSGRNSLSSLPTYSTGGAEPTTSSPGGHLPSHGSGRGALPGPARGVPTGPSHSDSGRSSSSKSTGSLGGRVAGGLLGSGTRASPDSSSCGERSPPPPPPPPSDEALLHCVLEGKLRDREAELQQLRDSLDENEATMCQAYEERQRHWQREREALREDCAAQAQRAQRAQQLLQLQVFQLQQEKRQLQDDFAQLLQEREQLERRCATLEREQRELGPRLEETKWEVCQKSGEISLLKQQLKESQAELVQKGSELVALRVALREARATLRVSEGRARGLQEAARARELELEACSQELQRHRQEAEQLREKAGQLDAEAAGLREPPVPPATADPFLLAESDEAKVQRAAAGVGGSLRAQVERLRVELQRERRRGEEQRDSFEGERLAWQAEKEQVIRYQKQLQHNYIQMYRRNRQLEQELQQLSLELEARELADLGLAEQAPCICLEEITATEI
UniProt Q9BUH6, whole entry: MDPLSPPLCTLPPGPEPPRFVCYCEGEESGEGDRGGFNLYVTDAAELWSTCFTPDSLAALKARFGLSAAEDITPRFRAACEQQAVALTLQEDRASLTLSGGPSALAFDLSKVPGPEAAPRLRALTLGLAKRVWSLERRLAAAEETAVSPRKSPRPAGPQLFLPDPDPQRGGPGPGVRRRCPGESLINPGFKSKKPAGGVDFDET
UniProt Q9BTC0, whole entry: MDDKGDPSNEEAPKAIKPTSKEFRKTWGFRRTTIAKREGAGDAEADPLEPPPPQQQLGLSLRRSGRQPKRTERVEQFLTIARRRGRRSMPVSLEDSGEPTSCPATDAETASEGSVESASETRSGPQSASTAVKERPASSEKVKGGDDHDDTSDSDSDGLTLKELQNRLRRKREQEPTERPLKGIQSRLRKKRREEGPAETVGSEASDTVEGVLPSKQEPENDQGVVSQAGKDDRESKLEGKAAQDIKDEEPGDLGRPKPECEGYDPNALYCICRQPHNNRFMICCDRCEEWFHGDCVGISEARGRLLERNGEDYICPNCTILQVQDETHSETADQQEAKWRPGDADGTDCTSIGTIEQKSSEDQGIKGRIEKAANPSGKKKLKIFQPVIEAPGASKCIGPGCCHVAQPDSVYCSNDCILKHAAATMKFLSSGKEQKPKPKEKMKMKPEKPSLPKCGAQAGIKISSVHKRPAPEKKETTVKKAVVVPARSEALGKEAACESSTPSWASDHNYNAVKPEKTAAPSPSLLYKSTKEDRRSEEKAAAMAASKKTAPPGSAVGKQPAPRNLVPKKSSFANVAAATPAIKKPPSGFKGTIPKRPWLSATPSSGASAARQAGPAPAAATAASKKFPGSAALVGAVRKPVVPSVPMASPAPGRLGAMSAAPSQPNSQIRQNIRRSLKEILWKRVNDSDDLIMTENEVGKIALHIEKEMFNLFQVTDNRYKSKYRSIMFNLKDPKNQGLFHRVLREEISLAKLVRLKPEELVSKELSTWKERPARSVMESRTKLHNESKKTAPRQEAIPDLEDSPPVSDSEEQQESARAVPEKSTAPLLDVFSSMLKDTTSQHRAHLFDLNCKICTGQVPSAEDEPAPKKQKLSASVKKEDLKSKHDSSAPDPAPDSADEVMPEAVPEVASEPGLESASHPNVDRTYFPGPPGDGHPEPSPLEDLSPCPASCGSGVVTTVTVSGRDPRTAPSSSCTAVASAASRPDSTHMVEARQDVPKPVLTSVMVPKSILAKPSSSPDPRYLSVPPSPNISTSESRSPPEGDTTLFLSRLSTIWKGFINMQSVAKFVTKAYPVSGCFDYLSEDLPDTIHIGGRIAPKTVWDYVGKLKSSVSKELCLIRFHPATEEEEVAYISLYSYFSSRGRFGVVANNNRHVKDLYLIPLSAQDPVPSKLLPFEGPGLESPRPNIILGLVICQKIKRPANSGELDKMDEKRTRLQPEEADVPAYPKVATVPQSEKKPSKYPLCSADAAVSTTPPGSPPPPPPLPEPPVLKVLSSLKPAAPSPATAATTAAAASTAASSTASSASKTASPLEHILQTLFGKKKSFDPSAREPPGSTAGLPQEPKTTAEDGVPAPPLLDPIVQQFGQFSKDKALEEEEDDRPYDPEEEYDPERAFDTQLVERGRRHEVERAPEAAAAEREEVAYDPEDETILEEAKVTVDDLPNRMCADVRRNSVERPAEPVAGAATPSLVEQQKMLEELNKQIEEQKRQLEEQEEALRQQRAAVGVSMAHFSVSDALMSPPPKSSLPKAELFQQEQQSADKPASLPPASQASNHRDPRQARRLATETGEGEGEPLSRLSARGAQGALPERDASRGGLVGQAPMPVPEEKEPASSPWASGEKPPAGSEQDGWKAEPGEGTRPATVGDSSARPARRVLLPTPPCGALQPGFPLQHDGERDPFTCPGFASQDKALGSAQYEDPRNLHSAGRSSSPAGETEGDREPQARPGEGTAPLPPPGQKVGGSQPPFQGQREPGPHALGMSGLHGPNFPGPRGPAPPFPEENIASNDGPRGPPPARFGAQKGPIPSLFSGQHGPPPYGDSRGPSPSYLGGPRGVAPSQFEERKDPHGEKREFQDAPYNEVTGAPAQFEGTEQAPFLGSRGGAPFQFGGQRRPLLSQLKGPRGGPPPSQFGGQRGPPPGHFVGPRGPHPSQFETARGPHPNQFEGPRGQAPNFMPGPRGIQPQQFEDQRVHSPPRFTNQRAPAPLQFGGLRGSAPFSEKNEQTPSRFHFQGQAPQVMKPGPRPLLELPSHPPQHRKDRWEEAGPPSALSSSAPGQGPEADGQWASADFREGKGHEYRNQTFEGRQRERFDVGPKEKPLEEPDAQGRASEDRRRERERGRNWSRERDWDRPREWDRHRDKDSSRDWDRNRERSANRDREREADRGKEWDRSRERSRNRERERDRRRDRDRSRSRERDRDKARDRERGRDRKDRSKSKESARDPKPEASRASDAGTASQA
UniProt Q9BV79: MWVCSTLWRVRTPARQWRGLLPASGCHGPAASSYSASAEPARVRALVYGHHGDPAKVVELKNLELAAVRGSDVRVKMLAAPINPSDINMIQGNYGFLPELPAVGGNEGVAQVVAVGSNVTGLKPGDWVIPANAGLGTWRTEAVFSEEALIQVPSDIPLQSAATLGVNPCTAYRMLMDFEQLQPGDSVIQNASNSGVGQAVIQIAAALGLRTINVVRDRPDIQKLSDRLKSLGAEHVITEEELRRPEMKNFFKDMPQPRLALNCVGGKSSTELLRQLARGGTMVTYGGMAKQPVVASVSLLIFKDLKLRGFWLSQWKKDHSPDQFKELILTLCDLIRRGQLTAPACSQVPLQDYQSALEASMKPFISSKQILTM
UniProt Q9BVC3, whole entry: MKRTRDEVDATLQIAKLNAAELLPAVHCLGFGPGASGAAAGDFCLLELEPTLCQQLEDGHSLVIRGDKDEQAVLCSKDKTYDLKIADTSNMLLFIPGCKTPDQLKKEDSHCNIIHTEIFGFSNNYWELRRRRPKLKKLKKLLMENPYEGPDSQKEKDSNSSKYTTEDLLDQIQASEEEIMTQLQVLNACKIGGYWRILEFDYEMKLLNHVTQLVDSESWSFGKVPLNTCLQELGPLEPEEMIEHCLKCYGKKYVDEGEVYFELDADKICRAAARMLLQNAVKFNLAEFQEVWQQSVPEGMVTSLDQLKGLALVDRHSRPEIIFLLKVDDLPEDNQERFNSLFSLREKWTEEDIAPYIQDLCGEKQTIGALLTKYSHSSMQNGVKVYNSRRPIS
UniProt Q9BPZ7, whole entry: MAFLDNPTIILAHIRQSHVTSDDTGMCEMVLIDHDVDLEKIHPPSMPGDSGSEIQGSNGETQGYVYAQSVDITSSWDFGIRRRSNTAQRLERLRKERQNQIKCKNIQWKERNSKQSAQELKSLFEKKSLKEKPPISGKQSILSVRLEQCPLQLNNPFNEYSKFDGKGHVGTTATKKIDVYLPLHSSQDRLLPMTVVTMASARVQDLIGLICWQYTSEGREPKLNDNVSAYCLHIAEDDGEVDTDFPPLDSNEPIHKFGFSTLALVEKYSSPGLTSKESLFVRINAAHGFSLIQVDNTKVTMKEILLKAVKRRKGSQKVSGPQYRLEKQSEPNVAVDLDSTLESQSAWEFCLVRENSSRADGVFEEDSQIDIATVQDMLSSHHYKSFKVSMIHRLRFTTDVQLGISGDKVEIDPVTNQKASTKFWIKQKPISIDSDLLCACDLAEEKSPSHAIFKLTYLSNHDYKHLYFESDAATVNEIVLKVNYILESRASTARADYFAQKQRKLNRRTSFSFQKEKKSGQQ

The targets below were run with CN[C@@H]1C[C@H]2O[C@@](C)([C@@H]1OC)n1c3ccccc3c3c4c(c5c6ccccc6n2c5c31)C(=O)NC4 [staurosporine] (assay: log2 fold change of tryptic peptide abundance, ligand vs vehicle (limited proteolysis) (log2 ratio); higher = more trypsin-susceptible (destabilized)). Conditions: ligand concentration: 20 uM; sample: K562 cleared lysate; digestion: 4 min, 22 C (HT-PELSA RT4min, Orbitrap Astral).

Row | Target | log2 fold change
1 | TSNAX (peptide sequence: TIFLLHR, peptide start residue: 70) (UniProt Q99598) | 0.341
2 | FYCO1 (peptide sequence: HLGDQMEASLLAVRK, peptide start residue: 672) (UniProt Q9BQS8) | 0.353
3 | UniProt Q9BUV8 (peptide sequence: KEEPPQPQLANGALK, peptide start residue: 7) | 0.333
4 | UTP14A (peptide sequence: VVTKPGHIINPIK, peptide start residue: 721) (UniProt Q9BVJ6) | 0.569
5 | NEU1 (peptide sequence: QIGSVDTFR, peptide start residue: 70) (UniProt Q99519) | -0.42
6 | HTATIP2 (peptide sequence: VDRDYVLK, peptide start residue: 107) (UniProt Q9BUP3) | 0.25
7 | NUP85 (peptide sequence: LLQSHNLYFGSNMR, peptide start residue: 386) (UniProt Q9BW27) | -0.484
8 | TMUB1 (peptide sequence: FLNDSEQVAR, peptide start residue: 109) (UniProt Q9BVT8) | -0.0203
9 | DUSP23 (peptide sequence: FVQIVDEANAR, peptide start residue: 77) (UniProt Q9BVJ7) | 0.442
10 | UniProt Q9BTV6 (peptide sequence: GASELPTPCHECR, peptide start residue: 369) | -0.181
11 | UniProt Q99541 (peptide sequence: DSVASTITGVMDK, peptide start residue: 128) | 0.156
12 | NUP88 (peptide sequence: CFVEHILCTKPLPCR, peptide start residue: 447) (UniProt Q99567) | -0.289
13 | NIPSNAP1 (peptide sequence: MGPNIYELR, peptide start residue: 180) (UniProt Q9BPW8) | 0.332
14 | LZTS2 (peptide sequence: EALREDCAAQAQR, peptide start residue: 370) (UniProt Q9BRK4) | -0.338
15 | CHCHD5 (peptide sequence: QNEAAVGNCAEHMR, peptide start residue: 71) (UniProt Q9BSY4) | -0.531
16 | UniProt Q99973 (peptide sequence: DPGVLSFLR, peptide start residue: 2432) | -0.612
17 | PDCD2L (peptide sequence: SGDQTFYK, peptide start residue: 245) (UniProt Q9BRP1) | -0.123
18 | TXNDC17 (peptide sequence: TIFAYFTGSK, peptide start residue: 26) (UniProt Q9BRA2) | 0.216
19 | UniProt Q9BSH4 (peptide sequence: IFSKLCLNIR, peptide start residue: 80) | -0.614
20 | UniProt Q9BUH6 (peptide sequence: FGLSAAEDITPR, peptide start residue: 64) | 0.239
21 | DIDO1 (peptide sequence: ERDWDRPR, peptide start residue: 2126) (UniProt Q9BTC0) | 0.95
22 | CCT7 (peptide sequence: KVQGGALEDSQLVAGVAFK, peptide start residue: 199) (UniProt Q99832) | -0.289
23 | UniProt Q99590 (peptide sequence: TEELIESPK, peptide start residue: 602) | 0.719
24 | MECR (peptide sequence: SLGAEHVITEEELR, peptide start residue: 230) (UniProt Q9BV79) | -0.0641
25 | DSCC1 (peptide sequence: QTIGALLTK, peptide start residue: 365) (UniProt Q9BVC3) | 0.281
26 | MAPKAP1 (peptide sequence: INAAHGFSLIQVDNTK, peptide start residue: 283) (UniProt Q9BPZ7) | -0.244
27 | MPHOSPH9 (peptide sequence: ATDNHVNHSSCPEPVPNGVK, peptide start residue: 900) (UniProt Q99550) | -0.569
28 | CPPED1 (peptide sequence: LTEQAVQAINK, peptide start residue: 67) (UniProt Q9BRF8) | 1.02
29 | TUBA1C (peptide sequence: AVCMLSNTTAVAEAWAR, peptide start residue: 374) (UniProt Q9BQE3) | -0.0963

2 entries picked at random from those above, as already listed:
Row | Target | log2 fold change
10 | UniProt Q9BTV6 (peptide sequence: GASELPTPCHECR, peptide start residue: 369) | -0.181
23 | UniProt Q99590 (peptide sequence: TEELIESPK, peptide start residue: 602) | 0.719
